The source of these data is patent publication US20070010474A1.

For this assay, the target named is T1, NF-kB p50 from nuclear extracts of mouse tissue (NC/Nga ears; SJL/J colon) (mouse), P25799.
T1 chain: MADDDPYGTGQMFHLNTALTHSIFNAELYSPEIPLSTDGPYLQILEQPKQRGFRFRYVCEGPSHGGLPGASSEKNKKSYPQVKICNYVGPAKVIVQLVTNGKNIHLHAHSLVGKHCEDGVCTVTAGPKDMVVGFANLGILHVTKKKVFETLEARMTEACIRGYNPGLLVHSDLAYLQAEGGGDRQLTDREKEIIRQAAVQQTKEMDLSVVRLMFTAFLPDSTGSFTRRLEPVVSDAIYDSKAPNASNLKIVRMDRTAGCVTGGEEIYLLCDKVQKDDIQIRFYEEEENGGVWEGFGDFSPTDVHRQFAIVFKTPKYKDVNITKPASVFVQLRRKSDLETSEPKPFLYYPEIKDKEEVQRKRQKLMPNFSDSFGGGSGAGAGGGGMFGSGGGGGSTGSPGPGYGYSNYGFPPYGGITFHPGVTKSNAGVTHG
In words: EMSA band composition by antibody supershift, nuclear extract of NC/Nga mouse ears. The settings on record: remark: other sources report otherwise.

No constants are given. Whether binding was seen depends on the method and setting. Some binding calls cover weakened binding; strength is not graded here.

B1: NF-kB p65 from nuclear extracts of mouse tissue (NC/Nga ears; SJL/J colon), Q04207 1-549 (protein, UniProt Q04207 1-549, looked up)
chain: MDDLFPLIFPSEPAQASGPYVEIIEQPKQRGMRFRYKCEGRSAGSIPGERSTDTTKTHPTIKINGYTGPGTVRISLVTKDPPHRPHPHELVGKDCRDGYYEADLCPDRSIHSFQNLGIQCVKKRDLEQAISQRIQTNNNPFHVPIEEQRGDYDLNAVRLCFQVTVRDPAGRPLLLTPVLSHPIFDNRAPNTAELKICRVNRNSGSCLGGDEIFLLCDKVQKEDIEVYFTGPGWEARGSFSQADVHRQVAIVFRTPPYADPSLQAPVRVSMQLRRPSDRELSEPMEFQYLPDTDDRHRIEEKRKRTYETFKSIMKKSPFNGPTEPRPPTRRIAVPTRNSTSVPKPAPQPYTFPASLSTINFDEFSPMLLPSGQISNQALALAPSSAPVLAQTMVPSSAMVPLAQPPAPAPVLTPGPPQSLSAPVPKSTQAGEGTLSEALLHLQFDADEDLGALLGNSTDPGVFTDLASVDNSEFQQLLNQGVSMSHSTAEPMLMEYPEAITRLVTGSQRPPDPAPTPLGTSGLPNGLSGDEDFSSIADMDFSALLSQISS
For the molecule B1, the binding entry is listed as “binds”.
